# At least one read-out could not be matched to a standard name with certainty.
# Test: Solubility of rapamycin in solvents
# Assay type: physicochemical
# Conditions: aqueous compositions, ethanolic compositions, triglycerides, alkanes, silicone systems
compound,measurement,value
CO[C@H]1C[C@@H]2CC[C@@H](C)[C@@](O)(O2)C(=O)C(=O)N2CCCC[C@H]2C(=O)O[C@H]([C@H](C)C[C@@H]2CC[C@@H](O)[C@H](OC)C2)CC(=O)[C@H](C)/C=C(\C)[C@@H](O)[C@@H](OC)C(=O)[C@H](C)C[C@H](C)/C=C/C=C/C=C/1C [rapamycin],solubilization of rapamycin,poorly solubilized

# — patent US10172789B2, “Compositions for transdermal delivery of mTOR inhibitors” (PALVELLA THERAPEUTICS LLC, priority 2013, dated 2019)
